Here are results for 42 sequences from PMC7819943, “Rice protein-binding microarrays: a tool to detect cis-acting elements near promoter regions in rice”.

Protein sequences, listed by entry. Tags and fused reporters are not part of them.
UniProt Q0JBA9, entry or part of it: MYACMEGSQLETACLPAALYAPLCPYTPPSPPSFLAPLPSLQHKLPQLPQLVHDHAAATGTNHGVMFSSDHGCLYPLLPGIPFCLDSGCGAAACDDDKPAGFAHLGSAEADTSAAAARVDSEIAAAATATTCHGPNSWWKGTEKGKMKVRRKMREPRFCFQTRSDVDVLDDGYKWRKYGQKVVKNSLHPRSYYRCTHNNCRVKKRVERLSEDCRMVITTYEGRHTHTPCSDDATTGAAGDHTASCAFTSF

The other results are listed elsewhere or left out.

This assay deals with OsWRKY34 (Oryza sativa, UniProt Q0JBA9 1-250). The assay can be described thus: protein-binding microarray (RPBM); PBS, 2% BSA, 51.3 ng/ul salmon testes DNA, 50 uM zinc acetate, 200 nM TF, 25 C, 1 h; high values mean tight binding. The settings on record: protein: recombinant; tags: N-terminal polyhistidine and DsRed monomer fusion (pET32a); label: CyDye5-dUTP incorporated in the synthesized complementary strand; 3' TTTTT single-stranded linker to array surface; dsDNA, one strand shown. A digest of the protocol:
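Binding signal is defined as the fluorescence intensity of each feature in arbitrary units, read on an Axon 4000B scanner. Transcription factors with N-terminal polyhistidine and DsRed fusions came from E. coli BL21-CodonPlus and were purified on Ni–NTA. They were incubated at 200 nM for 1 h at 25 °C on a custom Agilent array that had been made double-stranded with Cy5-dUTP, with 50 µM zinc acetate present, and the array was washed.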
For the sequence “TCCCTTCGTCGTTCCGTCTGCCACGTACACCTTCCATCTACGGAGTCACCTAGTGCAG”, the binding signal is 9830 fluorescence intensity (a.u.).

“GCAACAGCTTACTACTTACTACTCGGTCCCATCATATAAGCGGAGTCACCTAGTGCAG”: the binding signal is 9430 fluorescence intensity (a.u.).

In the case of “GCAACCGCGAGTAGTTCCTGCCGAGCAACCGGTCTTTTCGCGGAGTCACCTAGTGCAG”, the binding signal was 8100 fluorescence intensity (a.u.).

As to “ATGGTCCTTTGTCACGTTGGAGAAGACGCGCCACGGCCCACGGAGTCACCTAGTGCAG”, the binding signal was 8670 fluorescence intensity (a.u.).

“CTTGTATTCCAGTCAGAATCCTACATTTTTCCTATTCCTCCGGAGTCACCTAGTGCAG”: the binding signal is 9430 fluorescence intensity (a.u.).

Consider “TATCATGTGGTTTGCTTCTGTTACCTGCTGACCTGTGTTTCGGAGTCACCTAGTGCAG”, for which the binding signal was 8490 fluorescence intensity (a.u.).

Regarding “CTTCCTCTACTCGTCCTCTCCATTGCGCATCTTCCCTTTCCGGAGTCACCTAGTGCAG”, the binding signal is 10300 fluorescence intensity (a.u.).

Turning to “TCCTTCCGGCTTCCTCGGTTCCTCCTCCTCCGCAGCTAATCGGAGTCACCTAGTGCAG”, the binding signal is 8430 fluorescence intensity (a.u.).

Take “GAGTTTTTTTTCCTGATTTCTCAAAAATCAGACTCACAAACGGAGTCACCTAGTGCAG”: the binding signal is 8200 fluorescence intensity (a.u.).

As to “TTCATTTTTCTCGTGCATCATGATTTACCTTTTTTTCATTCGGAGTCACCTAGTGCAG”, the binding signal was 11000 fluorescence intensity (a.u.).

Turning to “TCGCTTATACTTATCAAACAAAATTTGATTTTTCGACCTTCGGAGTCACCTAGTGCAG”, the binding signal is 8120 fluorescence intensity (a.u.).

For “TCATTAATTGCACTATCTTCTACTTAAAATTATTTTTTTACGGAGTCACCTAGTGCAG”, the binding signal was 8640 fluorescence intensity (a.u.).

“TTGACAATGGTTGGGGTGGTGGTGGTGTTCGCGGTGATGACGGAGTCACCTAGTGCAG”: the binding signal was 31700 fluorescence intensity (a.u.).

As to “ATAAGGTTGACTATATTTCTCCTTCATCTTTCTCTCTATACGGAGTCACCTAGTGCAG”, the binding signal is 9000 fluorescence intensity (a.u.).

As for “CTCTCGTGGTGTGGTGTGGACAAGAAAGGAAGGAAAGATGCGGAGTCACCTAGTGCAG”, the binding signal was 8700 fluorescence intensity (a.u.).

As for “TGCTGAGGATGTCGTGGATTAGGCGCTTTTGATTTTGATTCGGAGTCACCTAGTGCAG”, the binding signal is 9130 fluorescence intensity (a.u.).

“CCCGTCTCCTTGTGGGTTTTGGGAGGGGTGGTTCCTCGAGCGGAGTCACCTAGTGCAG”: the binding signal was 14200 fluorescence intensity (a.u.).

Take “TTGAGTTGTGTTCTTGGTTGGGGAGGAGGAGGAGGAGATGCGGAGTCACCTAGTGCAG”: the binding signal is 15100 fluorescence intensity (a.u.).

Turning to “GAAAAATCTGTCAGTTGCATGTTATGTGGTCAATTCGATCCGGAGTCACCTAGTGCAG”, the binding signal is 9080 fluorescence intensity (a.u.).

As for “CGCGACTCTCTCCTCCTCGCCCTAGCCTCGTAACACGACGCGGAGTCACCTAGTGCAG”, the binding signal is 8640 fluorescence intensity (a.u.).

Take “CATCCATCATCATTGAACGGCCCACCAGAAAGCCTAGGCCCGGAGTCACCTAGTGCAG”: the binding signal was 8400 fluorescence intensity (a.u.).

“TGTATTTCTATATGGACTCTATTTTTTCTTTTTCTCCGATCGGAGTCACCTAGTGCAG”: the binding signal was 8770 fluorescence intensity (a.u.).

As to “ATCGCTTACTGTGACAACATCTCCAGCGTCTACATGTCCACGGAGTCACCTAGTGCAG”, the binding signal is 8180 fluorescence intensity (a.u.).

Take “TTTATTTTATTTGTGACTTGCTTTATTATCATAAGTACTTCGGAGTCACCTAGTGCAG”: the binding signal is 8180 fluorescence intensity (a.u.).

Turning to “TTATTACTCCTTGTCACAGTTTATAGGGTGTTCTTTTACACGGAGTCACCTAGTGCAG”, the binding signal is 8200 fluorescence intensity (a.u.).

On to “GACAGTTTTACACCATTTTTTCACTTTTTTGTTAATATTTCGGAGTCACCTAGTGCAG”, for which the binding signal is 12900 fluorescence intensity (a.u.).

Turning to “CTTCTTCTTCTTCACATTGACCATTTCCTCGCCTCTCAACCGGAGTCACCTAGTGCAG”, the binding signal is 8860 fluorescence intensity (a.u.).

For “GAATGACCTTTGACTTTCTTCCTTCGATTAGCTAGGGTGGCGGAGTCACCTAGTGCAG”, the binding signal is 8950 fluorescence intensity (a.u.).

Take “GTGGTGGTGGTGCAGCTTCTCTCCTCTTCTGAATCTTCTCCGGAGTCACCTAGTGCAG”: the binding signal was 14600 fluorescence intensity (a.u.).

With “ATGCTCGATCACATGCTTAATTCTTAGCTTTGTCCTAGTTCGGAGTCACCTAGTGCAG”, the binding signal is 8230 fluorescence intensity (a.u.).

For the sequence “GCTTTCAAATTTTACGATAGTTTTCAGTTTTGCACTGTATCGGAGTCACCTAGTGCAG”, the binding signal was 8110 fluorescence intensity (a.u.).

For the sequence “CGACGGGCGGGTGTGGGGATTCGCGGCCTTGAGGGTTCGTCGGAGTCACCTAGTGCAG”, the binding signal is 9660 fluorescence intensity (a.u.).

On to “AACTTTTGCATCTACTGAATTCTCTTGCGTTACCGTTCCACGGAGTCACCTAGTGCAG”, for which the binding signal is 8920 fluorescence intensity (a.u.).

“TTTTTTCTATTATTTTTTTCATTTTTCTTATTTCAGTTCCCGGAGTCACCTAGTGCAG”: the binding signal is 8250 fluorescence intensity (a.u.).

On to “AGATATGCATTATTTTTAAAAACCATTTTCACCATAATGTCGGAGTCACCTAGTGCAG”, for which the binding signal is 8630 fluorescence intensity (a.u.).

As for “AGTTTTTGGATTTCCTGTTTCGCATCTGACGGTTCGGCTGCGGAGTCACCTAGTGCAG”, the binding signal was 8180 fluorescence intensity (a.u.).

Turning to “GCCTCTCCTTGCTTGCGTGCTCACTGTCGCTGACTGCTCTCGGAGTCACCTAGTGCAG”, the binding signal is 8240 fluorescence intensity (a.u.).

For “AACTCTTTATATTTTTTCACATGGTTAGTATATATCGTAGCGGAGTCACCTAGTGCAG”, the binding signal was 9790 fluorescence intensity (a.u.).

For the sequence “CTGGTTCTTCTTCCTCGCATAGATTCCTCAGAACACAAACCGGAGTCACCTAGTGCAG”, the binding signal was 8130 fluorescence intensity (a.u.).

Consider “AGAGCGAACGGCCGTCTGCCACGTCATTTTCGCCGCCCTCCGGAGTCACCTAGTGCAG”, for which the binding signal was 8190 fluorescence intensity (a.u.).

As for “GCCTCGCTGCCTGCCGCTCCACCGATCGCTCGCTCGCTTCCGGAGTCACCTAGTGCAG”, the binding signal was 10100 fluorescence intensity (a.u.).

For the sequence “ATGCTACCACGCCACATCATTACCCACTACCAAAAATTACCGGAGTCACCTAGTGCAG”, the binding signal was 8800 fluorescence intensity (a.u.).
